Data published in article PMC11612967.
Results are given in words; binding and its absence hold for the method and conditions named. For some of these results: Binding seen in cells or lysates may run through a third protein. Some binding calls cover weakened binding; strength is not graded here. Blank lines part the entries; values can stand above or below the binder they belong to.

What was measured:
S. pombe Nse1 (S. pombe) = target: T1, S. pombe Nse1 (S. pombe) (UniProt Q53EK2); test: pull-down; S. pombe Smc5/6 subunits co-expressed in Sf9 cells by baculovirus, one subunit tagged (N- or C-terminal); pellets processed as for the small-scale expression in E. coli; single affinity step; Coomassie-stained SDS-PAGE
T1 sequence: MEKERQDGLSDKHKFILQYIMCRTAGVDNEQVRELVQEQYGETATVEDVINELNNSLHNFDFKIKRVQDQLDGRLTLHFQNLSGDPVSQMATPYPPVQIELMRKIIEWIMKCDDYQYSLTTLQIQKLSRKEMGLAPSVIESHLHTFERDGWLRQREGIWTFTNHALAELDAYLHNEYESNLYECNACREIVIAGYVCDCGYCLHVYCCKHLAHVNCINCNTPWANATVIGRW

S. pombe Nse2 (S. pombe) = target: T2, S. pombe Nse2 (S. pombe) (UniProt Q4PIR3); test: as above
T2 sequence: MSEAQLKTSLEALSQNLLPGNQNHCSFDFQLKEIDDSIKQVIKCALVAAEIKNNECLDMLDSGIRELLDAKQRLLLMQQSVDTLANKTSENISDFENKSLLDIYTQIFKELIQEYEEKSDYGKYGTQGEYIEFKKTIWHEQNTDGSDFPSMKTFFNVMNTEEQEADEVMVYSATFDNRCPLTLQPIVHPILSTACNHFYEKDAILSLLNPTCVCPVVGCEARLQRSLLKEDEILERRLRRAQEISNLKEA

S. pombe Nse3 (S. pombe) = target: T3, S. pombe Nse3 (S. pombe) (UniProt Q9Y7U4); test: as above
T3 sequence: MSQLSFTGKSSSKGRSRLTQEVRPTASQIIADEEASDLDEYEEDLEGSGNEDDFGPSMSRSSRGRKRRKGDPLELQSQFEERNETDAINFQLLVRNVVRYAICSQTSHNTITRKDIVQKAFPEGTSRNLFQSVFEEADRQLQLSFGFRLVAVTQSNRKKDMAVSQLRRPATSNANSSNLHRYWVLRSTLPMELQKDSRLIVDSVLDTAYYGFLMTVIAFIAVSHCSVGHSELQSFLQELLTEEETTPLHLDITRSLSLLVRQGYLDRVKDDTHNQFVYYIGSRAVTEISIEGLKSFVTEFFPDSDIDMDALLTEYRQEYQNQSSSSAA

S. pombe Nse4 (S. pombe) = target: T4, S. pombe Nse4 (S. pombe) (UniProt Q6BDR8); test: as above
T4 sequence: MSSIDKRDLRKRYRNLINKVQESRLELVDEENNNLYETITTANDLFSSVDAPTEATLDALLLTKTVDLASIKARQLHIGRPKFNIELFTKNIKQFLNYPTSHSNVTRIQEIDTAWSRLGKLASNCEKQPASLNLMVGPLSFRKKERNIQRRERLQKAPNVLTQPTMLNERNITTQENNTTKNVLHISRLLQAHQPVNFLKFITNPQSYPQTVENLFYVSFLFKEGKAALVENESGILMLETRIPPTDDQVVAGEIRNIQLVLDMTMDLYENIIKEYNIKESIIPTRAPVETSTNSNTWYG

[1] = target: T5, S. cerevisiae Smc6 (S. cerevisiae) (UniProt Q12749); test: SEC; large scale, 1 liter E. coli culture; Smc6 with C-terminal Twin-Strep tag; StrepTrap, HiTrap Heparin, then Superose 6 Increase in 10 mM Tris-HCl pH 7.5, 300 mM NaCl; peak fractions by SDS-PAGE and LC-MS/MS
T5 sequence: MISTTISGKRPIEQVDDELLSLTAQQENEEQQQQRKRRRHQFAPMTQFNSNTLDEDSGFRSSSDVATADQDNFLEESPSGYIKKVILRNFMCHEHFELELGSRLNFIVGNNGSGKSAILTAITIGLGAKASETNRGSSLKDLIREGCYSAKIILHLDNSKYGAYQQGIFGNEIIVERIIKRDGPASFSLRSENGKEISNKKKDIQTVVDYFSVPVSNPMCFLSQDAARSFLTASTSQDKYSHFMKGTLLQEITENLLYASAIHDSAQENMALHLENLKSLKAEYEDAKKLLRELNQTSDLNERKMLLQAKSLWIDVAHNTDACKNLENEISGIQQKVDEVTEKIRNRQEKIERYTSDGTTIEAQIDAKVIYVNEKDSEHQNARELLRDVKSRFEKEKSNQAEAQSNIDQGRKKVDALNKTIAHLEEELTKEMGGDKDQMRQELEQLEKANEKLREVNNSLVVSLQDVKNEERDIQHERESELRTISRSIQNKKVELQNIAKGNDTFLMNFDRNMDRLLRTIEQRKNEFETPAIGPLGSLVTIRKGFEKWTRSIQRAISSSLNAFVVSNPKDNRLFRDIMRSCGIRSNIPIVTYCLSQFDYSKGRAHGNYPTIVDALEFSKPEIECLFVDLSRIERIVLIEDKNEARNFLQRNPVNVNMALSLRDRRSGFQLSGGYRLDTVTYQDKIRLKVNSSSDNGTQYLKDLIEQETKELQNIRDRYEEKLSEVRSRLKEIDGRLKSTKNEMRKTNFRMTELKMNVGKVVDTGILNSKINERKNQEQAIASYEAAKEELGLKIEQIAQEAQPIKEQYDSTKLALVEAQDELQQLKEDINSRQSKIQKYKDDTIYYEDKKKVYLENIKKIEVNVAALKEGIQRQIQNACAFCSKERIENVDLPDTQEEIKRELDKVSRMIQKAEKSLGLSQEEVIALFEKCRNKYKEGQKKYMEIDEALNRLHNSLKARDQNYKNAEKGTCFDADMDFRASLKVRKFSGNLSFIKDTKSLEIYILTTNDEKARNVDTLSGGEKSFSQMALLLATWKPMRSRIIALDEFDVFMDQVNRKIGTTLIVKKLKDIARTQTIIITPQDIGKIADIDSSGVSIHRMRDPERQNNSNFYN

[2] = target: T6, S. cerevisiae Smc5 (S. cerevisiae) (UniProt Q08204); test: pull-down; S. cerevisiae Smc5/6 subunits co-expressed in E. coli Rosetta (DE3), one subunit with a Twin-Strep tag (N- or C-terminal); clarified lysate on Strep-Tactin Sepharose, 1 h at 4°C, 50 mM Tris-HCl pH 7.5, 300 mM NaCl, 5% glycerol; eluted with 2.5 mM desthiobiotin; Coomassie-stained SDS-PAGE
T6 sequence: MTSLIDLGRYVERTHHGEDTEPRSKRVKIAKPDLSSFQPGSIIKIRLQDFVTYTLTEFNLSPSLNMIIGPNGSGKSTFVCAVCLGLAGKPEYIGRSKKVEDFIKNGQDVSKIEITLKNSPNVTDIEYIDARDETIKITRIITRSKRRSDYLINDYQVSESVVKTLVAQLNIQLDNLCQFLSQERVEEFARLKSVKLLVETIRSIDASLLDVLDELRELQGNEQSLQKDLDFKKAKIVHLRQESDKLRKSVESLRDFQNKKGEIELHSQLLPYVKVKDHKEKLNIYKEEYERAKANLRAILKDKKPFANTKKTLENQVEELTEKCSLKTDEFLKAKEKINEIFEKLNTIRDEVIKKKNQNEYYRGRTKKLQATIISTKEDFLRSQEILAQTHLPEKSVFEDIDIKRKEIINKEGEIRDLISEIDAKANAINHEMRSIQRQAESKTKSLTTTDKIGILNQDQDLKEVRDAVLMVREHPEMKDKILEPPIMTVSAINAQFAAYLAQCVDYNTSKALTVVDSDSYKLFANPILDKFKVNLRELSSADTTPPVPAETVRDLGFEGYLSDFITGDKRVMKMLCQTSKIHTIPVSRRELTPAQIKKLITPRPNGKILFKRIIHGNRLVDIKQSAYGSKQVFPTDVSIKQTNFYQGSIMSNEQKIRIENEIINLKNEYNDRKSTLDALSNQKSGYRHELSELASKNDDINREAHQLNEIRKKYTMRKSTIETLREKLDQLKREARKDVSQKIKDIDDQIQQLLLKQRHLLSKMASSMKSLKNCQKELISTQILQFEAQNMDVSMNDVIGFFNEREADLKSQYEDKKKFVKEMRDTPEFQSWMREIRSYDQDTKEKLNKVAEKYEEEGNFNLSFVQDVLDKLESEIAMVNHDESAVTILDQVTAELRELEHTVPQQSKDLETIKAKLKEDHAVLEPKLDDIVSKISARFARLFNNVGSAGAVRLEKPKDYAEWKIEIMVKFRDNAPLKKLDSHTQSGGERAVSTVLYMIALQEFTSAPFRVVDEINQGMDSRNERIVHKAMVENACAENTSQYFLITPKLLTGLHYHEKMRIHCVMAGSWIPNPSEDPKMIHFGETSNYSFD

[3] = target: T5, S. cerevisiae Smc6 (S. cerevisiae); test: as above

- binding (S. pombe Nse1 (S. pombe)): binds
- binding (S. pombe Nse2 (S. pombe)): binds
- binding (S. pombe Nse3 (S. pombe)): binds
- binding (S. pombe Nse4 (S. pombe)): binds
B1: S. pombe Smc5 (protein, UniProt O13710 1-1076)
chain: MDGLRPSKRRKSNPLYSDYALGSIVRIKLVNFVTYDYCELFPGPYLNLIIGPNGTGKSTIVSAICIGLGWPPKLLGRAKEAREFIKYGKNTATIEIEMKYRDDETVTITRQISQDKSSSFSINREACATSSITSLMDTFNVQLNNLCHFLPQDRVAEFAQLDPYSRLMETERAIDHEGLLPAHEKLIDLRKREREILQNKNQGQSTLNSLKDRQQALEKEVNIFKEREKIKSYIEMLGLAKMLVIYREKTNVFNQLRADKKKLKKDLKDLVEEFQPILDKGEELRSDLKLKDDTFNDYSSASMELNTSNLRARASFSNFMENEKKLYEKVNTNRTLLRNANLTLNEAQQSVKSLTERQGPRPSDNGVQDLQEKMQEVNAEKLQHENEKLESSHELGSIRTLKAQKLIDLDNIKRELSYYNDATKRKLDFMSSAPGWEDAYQTYQLLKEYESAFEAPAYGPIYMNLKCKEKGFAALIEGFFRTDTFRTFIMSNYNDYLKLMDLITSKTKYTPTIREFSSERKKKIEDFEPPCSREKLQSFGFDGYVIDFLEGPEVVLVALCHMLKIHQIPIAKRELPPASVNALNNFRLANGDPVLKTYLAGSSIHLVFRSAYGDREITRRTDPLPSRSIYFSENVEMDLVKRKEEQLNAQLSQLENLQNEERKLQEKVNEHESLLSRTNDILSTLRKERDEKLIPIHEWQQLQERIEHQTLLLRQREKVPEQFAAEIEKNEDIRKENFEALMNSVLKVKENSIKATNNFEKMLGSRLNVIEAKYKLEKHEMDANQVNARLTEVQDRLKDITDKLASAREDAMSLYGSVVDSLQTQSSDRQTAITELNEEFATSSEVDNKISIEETKLKFMNVNSYVMEQYDARKKEIEELESKMSDFDQSVEELQDEMNSIKEDWVSKLEENVQCISDRFSKGMSGMGYAGEVRLGKSDDYDKWYIDILVQFREEEGLQKLTGQRQSGGERSVSTIMYLLSLQGLAIAPFRIVDEINQGMDPRNERVVHRHIVNSVCDNAVSQYFLVTPKLLPDLTYHRNLKVLCICNGAWLPATFRTSLSTYFEKLKKSALISSS

- binding [1]: binds
- binding [2]: binds
- binding [3]: binds
B2: S. cerevisiae Nse2 (protein, UniProt P38632 1-267)
chain: MALNDNPIPKSVPLHPKSGKYFHNLHARDLSNIYQQCYKQIDETINQLVDSTSPSTIGIEEQVADITSTYKLLSTYESESNSFDEHIKDLKKNFKQSSDACPQIDLSTWDKYRTGELTAPKLSELYLNMPTPEPATMVNNTDTLKILKVLPYIWNDPTCVIPDLQNPADEDDLQIEGGKIELTCPITCKPYEAPLISRKCNHVFDRDGIQNYLQGYTTRDCPQAACSQVVSMRDFVRDPIMELRCKIAKMKESQEQDKRSSQAIDVL
